Our source for the binding values is US7105290 (PROCTER AND GAMBLE, dated 2006).

Sequences of proteins named here, by UniProt entry; tags and fusion partners are left off. A change or cut given only in a name is not applied to a line headed by its entry.
UniProt Q05438: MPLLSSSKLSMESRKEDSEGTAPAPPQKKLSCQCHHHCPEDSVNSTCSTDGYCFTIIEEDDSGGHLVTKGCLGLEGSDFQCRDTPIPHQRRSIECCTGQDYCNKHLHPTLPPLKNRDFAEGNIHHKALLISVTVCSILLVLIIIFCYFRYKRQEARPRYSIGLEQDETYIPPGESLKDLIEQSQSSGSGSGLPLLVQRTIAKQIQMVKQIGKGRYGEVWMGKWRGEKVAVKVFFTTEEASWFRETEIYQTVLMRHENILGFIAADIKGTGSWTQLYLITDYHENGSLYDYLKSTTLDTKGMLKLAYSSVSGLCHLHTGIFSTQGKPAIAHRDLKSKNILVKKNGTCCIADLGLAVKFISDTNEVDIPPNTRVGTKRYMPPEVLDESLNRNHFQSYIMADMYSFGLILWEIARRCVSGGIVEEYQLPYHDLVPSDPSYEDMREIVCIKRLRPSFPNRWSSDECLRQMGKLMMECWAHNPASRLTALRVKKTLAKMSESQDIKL

No constants are given. Whether binding was seen depends on the method and setting. Some entries that bind do so weakly or less than the wild type.

This assay deals with BRK-2 co-expressed with t-BRK-3 (BRK-2/t-BRK-3 complex) (chicken; human) (UniProt Q05438). In words: competition, 10 nM unlabeled ligand against [^125I]-BMP-4; crosslinking and immunoprecipitation with antiserum 1380.

B1: digit-removed BMP-2 (ligand, UniProt P12643 294-396, looked up)
chain: SSCKRHPLYVDFSDVGWNDWIVAPPGYHAFYCHGECPFPLADHLNSTNHAIVQTLVNSVNSKIPKACCVPTELSAISMLYLDENEKVVLKNYQDMVVEGCGCR
On to B1, for which the binding entry is listed as “binds”.
